Experimental data: article PMC11066524, “The molecular determinants of classical pathway complement inhibition by OspEF-related proteins of Borrelia burgdorferi” (The Journal of Biological Chemistry, 2024)
These are yes or no findings as the source states them, for the method shown. Some binding calls cover weakened binding; strength is not graded here.

T1: ElpQA4 (Borrelia burgdorferi strain B31) (UniProt Q9S035)
T1 sequence: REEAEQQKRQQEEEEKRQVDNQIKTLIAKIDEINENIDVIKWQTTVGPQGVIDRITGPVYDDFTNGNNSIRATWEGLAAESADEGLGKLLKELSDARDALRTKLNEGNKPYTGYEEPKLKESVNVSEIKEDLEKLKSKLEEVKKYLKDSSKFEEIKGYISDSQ

T2: ElpQ_(Δ290-296) (Borrelia burgdorferi strain B31) (UniProt Q9S035)
T2 sequence: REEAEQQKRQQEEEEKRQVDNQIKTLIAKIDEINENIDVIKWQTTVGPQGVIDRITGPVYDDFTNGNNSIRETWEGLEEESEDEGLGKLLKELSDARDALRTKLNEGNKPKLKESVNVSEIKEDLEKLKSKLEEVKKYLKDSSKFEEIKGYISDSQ

B1: activated full-length human C1r (enzyme, UniProt P00736 18-705)
chain: SIPIPQKLFGEVTSPLFPKPYPNNFETTTVITVPTGYRVKLVFQQFDLEPSEGCFYDYVKISADKKSLGRFCGQLGSPLGNPPGKKEFMSQGNKMLLTFHTDFSNEENGTIMFYKGFLAYYQAVDLDECASRSKSGEEDPQPQCQHLCHNYVGGYFCSCRPGYELQEDTHSCQAECSSELYTEASGYISSLEYPRSYPPDLRCNYSIRVERGLTLHLKFLEPFDIDDHQQVHCPYDQLQIYANGKNIGEFCGKQRPPDLDTSSNAVDLLFFTDESGDSRGWKLRYTTEIIKCPQPKTLDEFTIIQNLQPQYQFRDYFIATCKQGYQLIEGNQVLHSFTAVCQDDGTWHRAMPRCKIKDCGQPRNLPNGDFRYTTTMGVNTYKARIQYYCHEPYYKMQTRAGSRESEQGVYTCTAQGIWKNEQKGEKIPRCLPVCGKPVNPVEQRQRIIGGQKAKMGNFPWQVFTNIHGRGGGALLGDRWILTAAHTLYPKEHEAQSNASLDVFLGHTNVEELMKLGNHPIRRVSVHPDYRQDESYNFEGDIALLELENSVTLGPNLLPICLPDNDTFYDLGLMGYVSGFGVMEEKIAHDLRFVRLPVANPQACENWLRGKNRMDVFSQNMFCAGHPSLKQDACQGDSGGVFAVRDPNTDRWVATGIVSWGIGCSRGYGFYTKVLNYVDWIKKEMEEED
B2: full-length activated human C1s (enzyme, UniProt P09871 16-437; P09871 438-688)
chain 1: EPTMYGEILSPNYPQAYPSEVEKSWDIEVPEGYGIHLYFTHLDIELSENCAYDSVQIISGDTEEGRLCGQRSSNNPHSPIVEEFQVPYNKLQVIFKSDFSNEERFTGFAAYYVATDINECTDFVDVPCSHFCNNFIGGYFCSCPPEYFLHDDMKNCGVNCSGDVFTALIGEIASPNYPKPYPENSRCEYQIRLEKGFQVVVTLRREDFDVEAADSAGNCLDSLVFVAGDRQFGPYCGHGFPGPLNIETKSNALDIIFQTDLTGQKKGWKLRYHGDPMPCPKEDTPNSVWEPAKAKYVFRDVVQITCLDGFEVVEGRVGATSFYSTCQSNGKWSNSKLKCQPVDCGIPESIENGKVEDPESTLFGSVIRYTCEEPYYYMENGGGGEYHCAGNGSWVNEVLGPELPKCVPVCGVPREPFEEKQR
chain 2: IIGGSDADIKNFPWQVFFDNPWAGGALINEYWVLTAAHVVEGNREPTMYVGSTSVQTSRLAKSKMLTPEHVFIHPGWKLLEVPEGRTNFDNDIALVRLKDPVKMGPTVSPICLPGTSSDYNLMDGDLGLISGWGRTEKRDRAVRLKAARLPVAPLRKCKEVKVEKPTADAEAYVFTPNMICAGGEKGMDSCKGDSGGAFAVQDPNDKTKFYAAGLVSWGPQCGTYGLYTRVKNYVDWIMKTMQENSTPRED

Assays:
[1] = molecular target: T1, ElpQA4 (Borrelia burgdorferi strain B31); assay: SPR; steady-state fit (K_(D, ss)), 1:1 model, of the same injection series as a2; ElpQ proteins amine-coupled to a CMD200 chip; activated C1s or C1r 0-200 nM; HBS-T Ca2+ (10 mM Hepes pH 7.3, 140 mM NaCl, 0.005% Tween-20, 5 mM CaCl2); both purified
[2] = molecular target: T2, ElpQ_(Δ290-296) (Borrelia burgdorferi strain B31); assay: SPR; kinetic fit (K_(D, kin)), 1:1 Langmuir; ElpQ/ElpB proteins amine-coupled to a CMD200 chip; activated C1s or C1r injected 0-200 nM, multicycle; HBS-T Ca2+ (10 mM Hepes pH 7.3, 140 mM NaCl, 0.005% Tween-20, 5 mM CaCl2); 30 μl/min; association 120 s (C1r 480 s), dissociation 180 s; both purified
[3] = molecular target: ElpQ_(Y240A) (Borrelia burgdorferi strain B31) (UniProt Q9S035); assay: as above

| Binder | binding [1] | binding [2] | binding [3] |
| --- | --- | --- | --- |
| B1 | binds weakly | no binding (tested: 200 nM (highest concentration injected)) | no binding (tested: 200 nM (highest concentration injected)) |
| B2 | – | – | no binding (tested: 200 nM (highest concentration injected)) |
